Experimental data published in PubChem BioAssay AID2551 (National Center for Advancing Translational Sciences (NCATS), 2010).
Several values for one entry are separate records, joined by “and”; a condition that tells them apart may be missing. Identical values can stand only once. Out of some 310,000 compounds screened, about 17,000 (5.5%) were called active. The inconclusive results got no clear call from the source; some entries with a clear call stand among them for comparison. Calls follow the shape of the dose curve; as a rule, active = well fitted inhibition curve with a large enough effect; inconclusive = small, poorly fitted or top-dose-only effect, or effect the other way; inactive = no such curve, though single readings can be large or run the other way. Potencies of inconclusive entries are doubtful fits and often do not repeat.

Chains of the proteins cited; added tags and fusions are not shown. Lines headed by an entry give the natural chain unless they say otherwise; changes in a name come on top.
UniProt P51450: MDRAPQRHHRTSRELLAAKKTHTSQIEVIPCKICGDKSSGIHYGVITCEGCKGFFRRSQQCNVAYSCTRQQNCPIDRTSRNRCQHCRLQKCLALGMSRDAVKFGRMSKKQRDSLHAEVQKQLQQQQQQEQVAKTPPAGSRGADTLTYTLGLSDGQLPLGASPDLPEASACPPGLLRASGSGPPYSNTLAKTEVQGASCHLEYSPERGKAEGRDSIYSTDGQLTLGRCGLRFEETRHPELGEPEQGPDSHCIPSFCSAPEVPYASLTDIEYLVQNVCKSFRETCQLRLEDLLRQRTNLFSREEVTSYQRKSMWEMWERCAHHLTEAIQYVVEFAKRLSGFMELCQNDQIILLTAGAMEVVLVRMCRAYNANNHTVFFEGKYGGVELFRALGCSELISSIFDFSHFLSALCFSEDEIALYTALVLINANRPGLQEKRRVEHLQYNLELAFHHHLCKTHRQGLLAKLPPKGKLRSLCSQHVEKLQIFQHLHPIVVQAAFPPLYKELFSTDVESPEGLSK

These compounds were tested against Nuclear receptor ROR-gamma (Mus musculus) (UniProt P51450) (assay: qHTS for inhibitors of ROR gamma transcriptional activity). Conditions: Drosophila S2 Gal4-RORgamma UAS-luciferase reporter, 20 h; activity change, negative = inhibition: at 53.6 µM (top of the series).
Method in brief: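 Luciferase reporter read in Schneider cells carrying Gal4-RORγ (mouse) and UAS-Photinus luciferase; cells given compound 1 h before 700 uM copper sulfate induction, then incubated 20 h at ambient temperature.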
% is scaled to controls: 0 for no effect and ±100 for the full control effect; potency is read from the fitted curve at half-maximal effect.
Also: nearly all actives have a fitted effect of over 60% in size.

Potency, inconclusive:
CC1=Nc2ccccc2N=C(N)C1c1ccccc1 (stereo not given) 11.2 µM [inhibitor, partial curve]
CCCn1c(C2CCCN2c2nc(C)cs2)nc2cc(Cl)c(Cl)cc21 (stereo not given) 4.47 µM [inhibitor, partial curve, poor fit]
CC(C)(C)C(=O)OCc1nc(-c2ccc(O)c(O)c2)cs1 2.24 µM [inhibitor, full curve, poor fit]
NC(=NCCCCCCN=C(N)/N=C(\N)Nc1ccc(Cl)cc1)/N=C(\N)Nc1ccc(Cl)cc1 12.6 µM [activator, partial curve] and 3.55 µM [activator, full curve] and 35.5 µM [inhibitor, single point]
COCCN(C(=O)c1ccccc1)c1nc(-c2ccc(OC)cc2)cs1 14.1 µM [activator, single point]
FC(F)Sc1ccc(Nc2ncnc3nc[nH]c23)cc1 6.31 µM [activator, single point]
O=C(O)c1ccc(-n2ncc3c2/C(=C/c2cccc([N+](=O)[O-])c2)CC3)cc1 35.5 µM [inhibitor, single point]
CCN(CC)c1ccc(/C=C2\CCC(/C=N/NC(=O)c3ccc(=O)n(C)c3)=C2N2CCOCC2)cc1 3.98 µM [activator, full curve]
COc1ccccc1C1CC(=O)NC(SCC(=O)Nc2ccccc2)=C1C#N (stereo not given) 35.5 µM [activator, single point]
CC(C)c1ccc(Nc2nnc(SCC(=O)c3nnc(-c4ccccc4)o3)s2)cc1 10 µM [inhibitor, partial curve, poor fit]
O=[N+]([O-])c1ccc(Sc2nccn2Cc2ccccc2)c([N+](=O)[O-])c1 22.4 µM [inhibitor, single point]
CCO[C@H]1OC(C(=O)Nc2ccccc2)=C[C@@H](c2ccc(Br)cc2)[C@@H]1CCCO 15.8 µM [activator, single point]
O=C(NN1C(=O)C2C(c3ccccc3)C=CC(c3ccccc3)C2C1=O)c1cccc(Br)c1 (stereo not given) 28.2 µM [activator, single point]
O=C(NCc1ccccc1)C1CCN(S(=O)(=O)c2ccc(Cl)cc2)CC1 11.2 µM [activator, single point]
COc1ccc2c(c1)CCCC21NC(=O)N(CC(=O)NC(=O)NCc2ccccc2)C1=O (stereo not given) 5.01 µM [inhibitor, partial curve, poor fit]
Cc1cccc(NC(=O)CC2SC(=O)N(c3ccccc3)C2=O)c1 (stereo not given) 15.8 µM [inhibitor, single point]
Cc1c(Cl)cnc(NC(=O)COC(=O)c2nn(C)c(=O)c3ccccc23)c1Cl 20 µM [activator, single point]
COC(=O)N/N=C/c1ccc(-c2ccc(C)c(Cl)c2)o1 8.91 µM [activator, partial curve]
Cc1ccc(-c2cc3nc(-c4ccccc4)cc(N4CCOCC4)n3n2)cc1 0.224 µM [activator, partial curve, poor fit]
COc1ccc(NS(=O)(=O)c2ccc3oc(SC(C)C(N)=O)nc3c2)cc1 (stereo not given) 22.4 µM [inhibitor, single point]
Cn1cc(C(=O)N/N=C/C(Br)=C/c2ccccc2)ccc1=O 20 µM [inhibitor, single point]
Cc1c(C(=O)NCc2ccccn2)oc2ccc(S(=O)(=O)N3CCC4(CC3)OCCO4)cc12 14.1 µM [inhibitor, partial curve]
COc1cc(CC(=O)Nc2cccc(SC)c2)cc(OC)c1OC 35.5 µM [inhibitor, single point]
Cc1ccc(OCc2nnc(SCc3nc4ccccc4[nH]3)n2Cc2ccco2)cc1 35.5 µM [inhibitor, single point]
Cc1ccc(/C=C2\SC(=S)N(CC(=O)Nc3ncc(Cc4ccccc4Cl)s3)C2=O)cc1 31.6 µM [inhibitor, single point]
Cc1ccc(C(=O)c2oc3ccc(Cl)cc3c2NC(=O)CN2CCN(C)CC2)cc1 25.1 µM [inhibitor, single point]
CC(=O)Nc1ccc(S(=O)(=O)NC2C3(C)CCC(C3)C2(C)C)cc1 (stereo not given) 0.316 µM [activator, full curve, poor fit]
Cn1c(SCC(=O)N/N=C/C=C\c2ccccc2[N+](=O)[O-])nc2ccccc21 17.8 µM [inhibitor, single point]
Cc1ccc(C)c(NC(=S)NC(NC(=O)Cc2cccc3ccccc23)C(Cl)(Cl)Cl)c1 (stereo not given) 12.6 µM [inhibitor, partial curve]
O=[N+]([O-])c1cc(S(=O)(=O)NC2=NCCCCC2)ccc1NCC1CCCCC1 17.8 µM [activator, single point]
O=C(Oc1ccc(N2C(=O)CCC2=O)cc1)c1ccccc1 0.0056 µM [activator, full curve, poor fit]
Cc1ccc(N/C(C(Cl)=C(Cl)Cl)=C(/Cl)[N+](=O)[O-])c(C)c1 12.6 µM [activator, single point]
C=CCn1c(CCC(O)COCCCCC)n[nH]c1=S (stereo not given) 20 µM [inhibitor, single point]
O=C1c2ccccc2C(=O)C1c1ccc2ccccc2n1 5.62 µM [inhibitor, full curve, poor fit] and 2.51 µM [inhibitor, full curve]
CC1CCN(C(=O)Cn2nnc(-c3ccc([N+](=O)[O-])cc3)n2)CC1 5.62 µM [activator, partial curve]
O=C(NCC(c1cccs1)N1CCOCC1)c1ccccc1NS(=O)(=O)c1cc([N+](=O)[O-])ccc1Cl (stereo not given) 11.2 µM [activator, partial curve]
O=C(NCCc1ccccc1)C1CCN(C(=O)NCc2ccccc2)CC1 0.316 µM [activator, full curve]
CC(=O)c1c(C)[nH]c(C(=O)OCc2ccccc2F)c1C 35.5 µM [inhibitor, single point]

Potency, active:
CCc1sc(C(=O)Nc2nc(C)cs2)cc1C 5.01 µM
O=C(Cc1ccccc1)NNC(=O)c1ccccc1C(=O)O 3.16 µM
C/C(=N\NC(=S)NCc1ccccc1)c1ccc(C#N)cc1 2.82 µM
O=C(O)CCCN1C(=O)/C(=C\c2ccco2)SC1=S 3.98 µM
COc1ccc(OC)c(/C(O)=C/C(=O)C(=O)Nc2cc(C)cc(C)c2)c1 2.51 µM
Fc1ccccc1/C=N/Nc1nc(-c2ccccn2)nc2ccccc12 0.251 µM
C=CCNC(=O)/C(C#N)=C/c1cc(Br)ccc1OC 12.6 µM
Cc1cc(C(=O)c2ccc(Cl)cc2)c(NC(=O)CCl)s1 10 µM
Oc1[nH]c2c(Cl)cc(Cl)cc2c1N=NC(=S)NCC1CCCO1 (stereo not given) 1.26 µM
S=C(N/N=C/c1ccc(Br)cc1)N1CCCCC1 1.41 µM
CCN(CC)C(=O)c1ccc2c(=O)n(Cc3ccc4c(c3)OCO4)c(=S)[nH]c2c1 11.2 µM
S=c1ccss1 12.6 µM

Activity change, negative = inhibition, inactive:
Cc1ccc(C)c(N2CCN(C(=O)c3cc4c(C)nc5ccccc5c4o3)CC2)c1 8.65%
CCNc1nc(NCC)n2c(SCC(=O)c3ccccc3F)nnc2n1 9.06%
Cc1cc(C)n2nc(N)c(N=Nc3ccc(Cl)cc3)c2n1 -39%
CC(=O)N1c2ccc(S(=O)(=O)NCc3ccccc3Cl)cc2CC1C (stereo not given) 22.3%
Cc1ccc(S(=O)(=O)NC(CC(=O)O)c2cccs2)cc1 (stereo not given) -26.1%
CCCCCC(=O)Nc1cccc(C2=NOC3(C2)C[C@@H](C(N)=O)N(C(=O)Cc2ccc([N+](=O)[O-])cc2)C3)c1 (stereo not given in full) 12.9%
Cc1cc(C(=O)CSc2ccc3c(c2)OCCO3)c(C)n1C1CC1 0.381%
CC(C)c1cc(Nc2cccc(O)c2)cc(C(C)C)c1O -14.1%
CC(=O)Nc1c(C)cc(OCC(=O)O)cc1C -2.77%
Cc1cc(=O)n2c3ccccc3n(CC(O)CN3CCN(CCO)CC3)c2c1C#N (stereo not given) -18.9%
COc1ccc(CNC(=O)CN(C(=O)c2csnn2)c2cccc(C(C)=O)c2)cc1 -18%
Cc1nn2c3ccccc3nc2n(C)c1=O -32%
O=C(Nc1ccc(O)c(-c2nc3ccccc3s2)c1)c1cccs1 42.7%
O=C1OC(N2C(=O)CC[C@H]2C(=O)Nc2cccc(F)c2)c2ccccc21 (stereo not given in full) -5.22%
CN(c1ccc(OCC(=O)OCC(=O)Nc2c(F)c(F)c(F)c(F)c2F)cc1)S(=O)(=O)c1ccc(F)cc1 -2.45%
O=C(Cn1nc(-c2ccco2)ccc1=O)Nc1ccc(Br)cc1 10.6%
COc1ccc(-c2n[nH]c(C)c2-c2cnn(-c3ccccc3)c2)c(O)c1 -116%
CCOC(=O)c1sc(=S)n(C)c1NC(=O)c1ccccc1Cl 9.77%
CC(=O)Sc1nc(-c2ccccc2)[nH]c1S(=O)(=O)c1ccc(C)cc1 -15.3%
O=C(CSc1ccsc1[N+](=O)[O-])NC1CCCC1 7.88%
